In patent publication US20160046678A1 (ZYNGENIA, published 2016):
Results are given in words; binding and its absence hold for the method and conditions named. Some results given as binding are weak or reduced against the parent protein; the word gives no strength.

By UniProt entry, the sequences of proteins in these tests, tags left out. Residues count along the entry.
UniProt P05231, residues 30-212: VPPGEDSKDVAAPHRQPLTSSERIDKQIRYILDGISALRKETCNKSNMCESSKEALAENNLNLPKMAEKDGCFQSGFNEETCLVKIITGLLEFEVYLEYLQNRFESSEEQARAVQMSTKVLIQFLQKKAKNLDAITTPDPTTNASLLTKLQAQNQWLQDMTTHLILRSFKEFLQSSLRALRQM

B1: ILB675 (peptide)
peptide: MQFSWTQHFFGQAGQGSATGGSGSTASSGSGSSFNEDCMWDPLLMDCAYSPGMQFSWTQHFFGQAGQGSATGGSGSTASSGSGSSFNEDCMWDPLLMDCAYSP
B2: ILB653 (peptide)
peptide: MFYEYQWWIHGQAGQGSFNEDCMWDPLLMDCAYSP
B3: ILB650 (peptide)
peptide: WRWHAEWDWYGQAGQGSATGGSSFNEDCMWDPLLMDCAYSP
B4: ILB657 (peptide)
peptide: TGFFWSWSFGGQAGQGSATGGSSFNEDCMWDPLLMDCAYSP
B5: ILB672 (peptide)
peptide: IWWGYSWDHYGQAGQGSATGGSSFNEDCMWDPLLMDCAYSP
B6: ILB644 (peptide)
peptide: AIAHLDVFPPQGSFNEDCMWDPLLMDCAYSP
B7: ILB673 (peptide)
peptide: IVNFTWNFLSGQAGQGSFNEDCMWDPLLMDCAYSP
B8: ILB641 (peptide)
peptide: QTYSNKPMGPQGSFNEDCMWDPLLMDCAYSP
B9: ILB642 (peptide)
peptide: EEEWSWYDRRGQAGQGSFNEDCMWDPLLMDCAYSP
B10: ILB655 (peptide)
peptide: WPFYEYIIHMGQAGQGSATGGSSFNEDCMWDPLLMDCAYSP
B11: ILB646 (peptide)
peptide: YWAWQQEFQWGQAGQGSATGGSSFNEDCMWDPLLMDCAYSPGSYWAWQQEFQWGQAGQGSATGGSSFNEDCMWDPLLMDCAYSP
B12: ILB659 (peptide)
peptide: SKMEQYPWNMGQAGQGSATGGSSFNEDCMWDPLLMDCAYSPQGSATGGSSFNEDCMWDPLLMDCAYSP
B13: ILB671 (peptide)
peptide: PWSKATQPGWGQAGQGSATGGSGSTASSFNEDCMWDPLLMDCAYSPQGSATGGSGSTASSFNEDCMWDPLLMDCAYSPQGSATGGSGSTASSFNEDCMWDPLLMDCAYSP
B14: ILB656 (peptide)
peptide: RPYYYQWHIWGQAGQGSATGGSSFNEDCMWDPLLMDCAYSP
B15: ILB639 (peptide)
peptide: DQLWRQNWMQGQAGQGSFNEDCMWDPLLMDCAYSP
B16: ILB670 (peptide)
peptide: QRYMMQTMLIGQAGQGSATGGSSFNEDCMWDPLLMDCAYSPQGSATGGSSFNEDCMWDPLLMDCAYSP
B17: ILB661 (peptide)
peptide: DWQVYYKTWIGQAGQGSATGGSGSTASSGSGSSFNEDCMWDPLLMDCAYSPQGSATGGSGSTASSGSGSSFNEDCMWDPLLMDCAYSP
B18: ILB664 (peptide)
peptide: QCCMSQVSWYVGQAGQGSATGGSSFNEDCMWDPLLMDCAYSPQGSATGGSSFNEDCMWDPLLMDCAYSPQGSATGGSSFNEDCMWDPLLMDCAYSP
B19: ILB637 (peptide)
peptide: WQVSSVQLPYGQAGQGSATGGSSFNEDCMWDPLLMDCAYSP
B20: ILB647 (peptide)
peptide: YYQGFPWFQIGQAGQGSATGGSSFNEDCMWDPLLMDCAYSP
B21: ILB649 (peptide)
peptide: YEEHCALFPTDWICTLH
B22: ILB662 (peptide)
peptide: YRYTTYWWYSGQAGQGSATGGSGSTASSFNEDCMWDPLLMDCAYSP
B23: ILB652 (peptide)
peptide: WRWEFGYYYHGQAGQGSATGGSSFNEDCMWDPLLMDCAYSP
B24: ILB640 (peptide)
peptide: QYYNVYWQNQGQAGQGSATGGSSFNEDCMWDPLLMDCAYSP
B25: ILB645 (peptide)
peptide: QYQSRQTFQIGQAGQGSFNEDCMWDPLLMDCAYSPQGSFNEDCMWDPLLMDCAYSP
B26: ILB676 (peptide)
peptide: LHANSIATNWGQAGQGSATGGSSFNEDCMWDPLLMDCAYSP
B27: ILB643 (peptide)
peptide: AYYWKEWMKMGQAGQGSATGGSSFNEDCMWDPLLMDCAYSPG
B28: ILB660 (peptide)
peptide: YHWQQQHQYHGQAGQGSATGGSSFNEDCMWDPLLMDCAYSPQGSATGGSSFNEDCMWDPLLMDCAYSP
B29: ILB666 (peptide)
peptide: QWSFHWWSHTGQAGQGSATGGSSFNEDCMWDPLLMDCAYSP
B30: ILB669 (peptide)
peptide: ADRFFVWNPYGQAGQGSATGGSSFNEDCMWDPLLMDCAYSPQGSATGGSSFNEDCMWDPLLMDCAYSP
B31: ILB665 (peptide)
peptide: YYQGFPWFQIGQAGQGSATGGSSFNEDCMWDPLLMDCAYSPGGGSYYQGFPWFQIGQAGQGSATGGSSFNEDCMWDPLLMDCAYSP
B32: ILB667 (peptide)
peptide: WTFEWWIYTKGQAGQGSATGGSSFNEDCMWDPLLMDCAYSP
B33: ILB654 (peptide)
peptide: PDWITWQPAWGQAGQGSATGGSSFNEDCMWDPLLMDCAYSPQGSATGGSSFNEDCMWDPLLMDCAYSP
B34: ILB638 (peptide)
peptide: QQTQTYWGTWGQAGQGSFNEDCMWDPLLMDCAYSP
B35: ILB648 (peptide)
peptide: FFYQWSYGWSGQAGQGSFNEDCMWDPLLMDCAYSP

Biological target: IL6 (UniProt P05231)
Assay: MRD identification, Example 48

binding, binds:
B1, B2, B3, B4, B5, B6, B7, B8, B9, B10, B11, B12, B13, B14, B15, B16, B17, B18, B19, B20, B21, B22, B23, B24, B25, B26, B27, B28, B29, B30, B31, B32, B33, B34, B35
